These are yes or no findings as the source states them, for the method shown. Some results given as binding are weak or reduced against the parent protein; the word gives no strength.
Target: T1, BAFF (UniProt Q9Y275 134-285, limits assumed)
T1 construct: Coated on ELISA plates at 2 ug/ml; The construct is not described; also called BLyS; TALL-1
Assay: competitive displacement ELISA, BAFF coated, biotinylated miniBR3 as tracer
Protocol: FIGS. 16A-16B depict binding of BR3 variants to BAFF. (A) Competitive displacement of biotinylated miniBR3 measured by ELISA (see methods). Data are shown for BR3 extracellular domain (filled triangles), miniBR3 (open squares), and bhpBR3 (filled circles). IC₅₀ values from the fitted curves are 70 nM, 65 nM, and 15 μM, respectively. (B) HeLa cells expressing a chimeric receptor composed of the extracellular ligand-binding domain of BR3 fused to the death domain of DR4 were seeded 16 hr before treatment. BAFF (2 nM) was added to cells alone or after being preincubated with miniBR3 (3 μM), bhpBR3 (100 μM) or a control hairpin peptide with an unrelated turn sequence in the same bhp scaffold (bhpC, 100 μM) for 30 min at room temperature. Apoptosis was assessed 24 hr later. […]
Nunc Maxisorp 96-well plates were coated overnight at 4° C. with 100 μl of a 2 μg/ml solution of BAFF in carbonate buffer, pH 9.6. […] The reaction was quenched with 100 μl/well 1M H₃PO₄ and the plate read at 490 nm. IC₅₀ values were determined by a four-parameter fit of the competitive displacement ELISA signal. The concentrations of initial stock solutions of bhpBR3 were determined spectrophotometrically as described (Gill and von Hippel, (1989) Anal. Biochem. 182:319-326), while those of miniBR3 and BR3 extracellular domain were determined by quantitative amino acid analysis.

Amino acid sequences for entries named in this document (tags omitted). Residues count along the entry.
UniProt Q9Y275, residues 134-285: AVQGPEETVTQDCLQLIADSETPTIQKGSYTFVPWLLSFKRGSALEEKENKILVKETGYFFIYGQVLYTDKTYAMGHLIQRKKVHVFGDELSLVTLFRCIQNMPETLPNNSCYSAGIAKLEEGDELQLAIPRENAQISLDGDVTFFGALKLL

binding: binds
Binder: CHWDLLVRHWVC (C-terminal amide; cyclic disulfide between the two cysteines) [bhpBR3]

From patent US20060110777A1 (Genentech, published 2006)
